PubChem BioAssay AID1224828 – NIAID – 2016

Test: 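Knock-downs that increase or decrease LPS-induced p65 nuclear translocation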 (primary screen)
Cell system: mouse RAW264.7 G9 macrophage reporter cells (GFP-p65, Tnf promoter-mCherry)
Knock-down reagent: siRNA pool against mouse genes, 100 nM
Duration: 2 days siRNA transfection, then 40 min LPS before fixation
Treatment: LPS (Salmonella minnesota R595) at 10 ng/ml
Detection: 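Microscopy ratio of nuclear to perinuclear-ring GFP-p65 signal, scaled to the plate median; gene score is the average of two replicate robust z-scores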
Reading the numbers: p65 translocation robust z-score: higher = more nuclear NF-kappaB p65 after LPS than the plate median; nuclear/cytoplasmic p65 ratio: higher = more nuclear NF-kappaB p65
Hit rule: 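Active if robust z is above 3.3 (negative regulators) or below -1.56, the Tlr4 control median (positive regulators); activity score 50 or more; control wells not called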
Calls: active = hit (p65 shift raised or lowered); inactive = no clear change
Here is one part, drawn at random, of about 17,000 deposited reagents. In the full data, 762 (4.5%) are marked active. 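Active calls include both raised and lowered p65 entry, mostly lowered; wells with fewer than 50 cells lack a z-score.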 Raw values vary from plate to plate and are shown uncorrected. A number with no mark means an inactive call. Reagent sequences are not shown.

Samd13 | nuclear/cytoplasmic p65 ratio, rep 1: 1.45; nuclear/cytoplasmic p65 ratio, rep 2: 1.4; low cell count flag: fewer than 50 cells per well; well left out of scoring
Mcm7 | p65 translocation robust z-score: 0.47; nuclear/cytoplasmic p65 ratio, rep 1: 1.51; nuclear/cytoplasmic p65 ratio, rep 2: 1.4; low cell count flag: enough cells to score
Zfp52 | p65 translocation robust z-score: 0.73; nuclear/cytoplasmic p65 ratio, rep 1: 1.5; nuclear/cytoplasmic p65 ratio, rep 2: 1.34; low cell count flag: enough cells to score
Ptprc | p65 translocation robust z-score: 0.45; nuclear/cytoplasmic p65 ratio, rep 1: 1.54; nuclear/cytoplasmic p65 ratio, rep 2: 1.49; low cell count flag: enough cells to score

Reformatted: 2 of the entries above.
{"Target gene":"Zfp52","p65 translocation robust z-score":0.73,"nuclear/cytoplasmic p65 ratio, rep 1":1.5,"nuclear/cytoplasmic p65 ratio, rep 2":1.34,"low cell count flag":"enough cells to score"}
{"Target gene":"Ptprc","p65 translocation robust z-score":0.45,"nuclear/cytoplasmic p65 ratio, rep 1":1.54,"nuclear/cytoplasmic p65 ratio, rep 2":1.49,"low cell count flag":"enough cells to score"}

The results go on:
Adrb3 | p65 translocation robust z-score: 0.77; nuclear/cytoplasmic p65 ratio, rep 1: 1.64; nuclear/cytoplasmic p65 ratio, rep 2: 1.67; low cell count flag: enough cells to score
Rell1 | p65 translocation robust z-score: 0.5; nuclear/cytoplasmic p65 ratio, rep 1: 1.47; nuclear/cytoplasmic p65 ratio, rep 2: 1.57; low cell count flag: enough cells to score
Ccdc137 | nuclear/cytoplasmic p65 ratio, rep 1: 1.24; nuclear/cytoplasmic p65 ratio, rep 2: 1.51; low cell count flag: fewer than 50 cells per well; well left out of scoring
Gdf5 | p65 translocation robust z-score: 0.13; nuclear/cytoplasmic p65 ratio, rep 1: 1.43; nuclear/cytoplasmic p65 ratio, rep 2: 1.41; low cell count flag: enough cells to score
Hes2 | p65 translocation robust z-score: -1.19; nuclear/cytoplasmic p65 ratio, rep 1: 1.41; nuclear/cytoplasmic p65 ratio, rep 2: 1.39; low cell count flag: enough cells to score
Csnk1g2 | p65 translocation robust z-score: 1.27; nuclear/cytoplasmic p65 ratio, rep 1: 1.8; nuclear/cytoplasmic p65 ratio, rep 2: 1.61; low cell count flag: enough cells to score
Capn1 | p65 translocation robust z-score: -0.32; nuclear/cytoplasmic p65 ratio, rep 1: 1.52; nuclear/cytoplasmic p65 ratio, rep 2: 1.61; low cell count flag: enough cells to score
Loxhd1 | nuclear/cytoplasmic p65 ratio, rep 1: 1.15; nuclear/cytoplasmic p65 ratio, rep 2: 1.24; low cell count flag: fewer than 50 cells per well; well left out of scoring
